Source: patent US10457680B2, “Process for preparing a PARP inhibitor, crystalline forms, and uses thereof” (BeiGene, Ltd., priority 2015, dated 2019)
At least one compound was matched to its structure with a doubt left.

Tested on: H209 SCLC xenograft
Assay: H209 SCLC xenograft model, combination with TMZ
Assay type: in vivo, mouse
Conditions: one cycle of treatment

## Cn1nnc2c(C(N)=O)ncn2c1=O [TMZ, Temozolomide]
  tumor response to single agent: all animals tumor-free
